# About 210 (0.4%) of roughly 52,000 sequences were called active.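 The calls were made as follows: active = gene whose silencing raises cell survival under the drug, median off-target-corrected z-score across its silencing RNAs 2 or more; inactive = the rest.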 Some of the results follow.
# Assay: Resistance to Poly (ADP-Ribose) Polymerase inhibitor: Gene Identification via Genome-wide siRNA Screen
# Details: mouse BRCA2 R2336H ES cells, olaparib, CellTiter-Glo viability; stronger effect = higher value
# Summary of the method: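 Genome-wide siRNA screen (3 siRNAs/gene, 20 nM) in mouse ES cells carrying hypomorphic BRCA2 R2336H; olaparib 500 nM added 48 h post-transfection, CellTiter-Glo viability 72 h later. Normalized to plate-median negative control; MAD z-scores, gene median, seed-adjusted.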
row,Sequence,z-score
1,GGAGUAUCGGUGACUACGGTT against Chst9,inactive: 0.0473
2,GGUGAAGCAGAUCAACAAGTT against Stmn2,inactive: 2.28
3,GGUGGUUUACCAAACGGUGTT against 2210023G05Rik,inactive: -0.421
4,GGCCGAGUACAAACGUGGATT against AU019532,inactive: 0.561
5,GGAUUUUCUACUCUAAAGATT against Tnfrsf19,inactive: -0.42
6,GGAAUUUGGUUAAAUGGAATT against Dio2,inactive: 0.00953
7,GGAACUCUGUGGGUGAGAATT against 5830472H07Rik,inactive: -0.148
8,GGAGAUGCAGAAAAUGAAUTT against Prim1,inactive: -1.42
9,GGCUCAUUUUGAAGCUAAGTT against D030060M11Rik,inactive: -1.67
10,GCACAUUCAUAGGAGUACCTT against V1rf3,inactive: 1.11
11,GGCCCAAAGUUUAUCCAAGTT against Rasl12,inactive: -0.546
12,GGGCACACCCAUGAAGACATT against Tcf1,inactive: 0.312
13,GGAACUUUGCCAUCUCUCCTT against Insrr,inactive: 0.314
14,GGAACAGCGGCUAACUUAUTT against Accn4,inactive: -1.42
15,GCCUCUAGUACAGACAACCTT against Rnf121,inactive: 0.961
16,GGAAGUUUGCUAGAGUUAATT against Taf13,inactive: 2.18
17,GGACAAUCCGUUCUUUCUGTT against Tgfb3,inactive: 0.0777
18,GCACAGAGUUUUACCUUCUTT against Olfr811,inactive: -1.05
19,GGAAGAUAAAUGUCACAAATT against AA792892,inactive: 0.0744
20,GACCAUAGAGAUUAUCGUGTT against Retnla,inactive: 0.504
21,GGAGUGUCUCAGUUCAGUGTT against Ppp3r1,inactive: -1.6
22,GGAUGCACUGAGGAACUCATT against 9430023L20Rik,inactive: -0.861
23,CCCUCCUAUUAGCGCAUUUTT against Osbpl2,inactive: -2.03

row,Sequence,z-score
1,GGAGACCUAAAAUGUCUUUTT against Klrb1d,inactive: 0.522
2,GCAAACUGUCCUAUCUUGGTT against Cacna1d,inactive: 0.557
3,GGUCAGAGGCCAACAUGGUTT against Oas1e,inactive: -1.44
4,GGUUUUGCAUCAACAGUGUTT against Msrb,inactive: -0.548
5,GCUCUAUUUGACCACCUCATT against 2610020H15Rik,inactive: -0.378
6,GGAAGUCAUCAAAGGCUUUTT against Fkbp1b,inactive: -1.22
7,GGAGGUGAAGCUUCGAAUGTT against Slc25a10,inactive: -2.94
8,GGAGCUGAGGAAAAAGAUUTT against Uhrf1,inactive: -2.64
9,GGAUAAGAAGUCCAAGAACTT against Pknox2,inactive: 0.469
10,GGAAUAGACUUGGAAUCUATT against B930008I02Rik,inactive: 0.384
11,GGUCAUUAGGAACUACACUTT against Vav3,inactive: 0.149
12,GCUCAAAGUUUGAACUGGCTT against A2lp,inactive: 1.13
13,GGGUAUAUAAGCAGCACCATT against Rdh9,inactive: -0.965
14,GGCCUUUUCUCAAGGAGAATT against Cadps2,inactive: -1.33
15,GGGUUCUGGACAAGAUGAATT against Gpi1,inactive: -2.3
16,CGGAAUUGGUGAUCUUUGUTT against Olfr1104,inactive: 0.294
17,GGUGCUGAUCCUUCAAAGGTT against BC031901,inactive: -0.614
18,GGCAAGGACCCUGACCUAUTT against Ccr4,inactive: 1.08
19,GGAGUAUGCUGUCAAAAUCTT against Mknk1,inactive: 0.77
20,CGCUGAAAUGGUGAAUAAATT against Recql,inactive: -1.13
21,CCGCACAAGAGGUAGAUACTT against Ddx5,inactive: -2.06
22,GGACCAUCAGUACCAGUUUTT against Trim28,inactive: 0.13
23,GGCAAUACUGGAAGGGUGUTT against Eps15,inactive: -0.568

row,Sequence,z-score
1,GGAAAAGAAAACAGGAGAUTT against Edn3,inactive: 0.573
2,GCGGCGGAUAGUGUCACAUTT against Gmip,inactive: -1.56
3,GGAGGAGAUCCUUCAUUACTT against Psap,inactive: 0.276
4,CGUACACCGUAUUCAUGACTT against Rapgef5,inactive: -0.893
5,CCGUAAGCUGUCUCUUUGUTT against Pla2g4c,inactive: -2.33
6,GCGAAUCAGCACUUAUGGATT against Cd2ap,inactive: 0.337
7,GGACAGCCAAAUAGAAUAATT against Atrn,inactive: -1.02
8,GGAAAAUGACAGCGAAGAGTT against Hel308-pending,inactive: -2.48
9,GGUCAGAUUAUGCUUUAGATT against Mrgpre,inactive: 0.192
10,GCUGCUUGCAUGCGUUACUTT against Btbd14a,inactive: 0.891
11,GGUCAAUCACUUAUAAUGUTT against Olfr771,inactive: 0.252
12,GGCCAAGUGCUCACAGUUCTT against Arpc1b,inactive: 0.178
13,GGCUGAAGAACCCUCCAAUTT against BC033606,inactive: -0.647
14,GGUGACAAUAAAUUUGGAUTT against 2310076O21Rik,inactive: -0.578
15,GCUCCGAUAUCAUUUGUUUTT against Crh,inactive: 1.58
16,GGCUGUCUGUUAAGAUUAATT against Olfr181,inactive: -0.433
17,GGGAGACUUUCCAUUUGGUTT against Ap3s1,inactive: -1.77
18,CCGAGCAGGAUUGCAUAUATT against Cspg5,inactive: -0.858
19,GGUCAUGAUGGUAUUGUGCTT against Traf7,inactive: 0.636
20,GCUCUGAUUCAGCAAGAGUTT against Rshl1,inactive: 0.444
21,GCAGAGGGUGCUUGUAACCTT against Hp,inactive: -0.59

# Reprinted at random: 4 records from the list, in no set order.
row,Sequence,z-score
4,CGUACACCGUAUUCAUGACTT against Rapgef5,inactive: -0.893
13,GGCUGAAGAACCCUCCAAUTT against BC033606,inactive: -0.647
18,CCGAGCAGGAUUGCAUAUATT against Cspg5,inactive: -0.858
8,GGAAAAUGACAGCGAAGAGTT against Hel308-pending,inactive: -2.48

# From PubChem BioAssay AID1347423 (Functional Genomics Laboratory (NCATS/FGL), 2020)
